Reference: article PMC8979988
Results are given in words; binding and its absence hold for the method and conditions named. Binding seen in cells or lysates may run through a third protein. Some entries that bind do so weakly or less than the wild type.

Protein sequences, listed by entry. Tags and fused reporters are not part of them.
UniProt Q8BSK8: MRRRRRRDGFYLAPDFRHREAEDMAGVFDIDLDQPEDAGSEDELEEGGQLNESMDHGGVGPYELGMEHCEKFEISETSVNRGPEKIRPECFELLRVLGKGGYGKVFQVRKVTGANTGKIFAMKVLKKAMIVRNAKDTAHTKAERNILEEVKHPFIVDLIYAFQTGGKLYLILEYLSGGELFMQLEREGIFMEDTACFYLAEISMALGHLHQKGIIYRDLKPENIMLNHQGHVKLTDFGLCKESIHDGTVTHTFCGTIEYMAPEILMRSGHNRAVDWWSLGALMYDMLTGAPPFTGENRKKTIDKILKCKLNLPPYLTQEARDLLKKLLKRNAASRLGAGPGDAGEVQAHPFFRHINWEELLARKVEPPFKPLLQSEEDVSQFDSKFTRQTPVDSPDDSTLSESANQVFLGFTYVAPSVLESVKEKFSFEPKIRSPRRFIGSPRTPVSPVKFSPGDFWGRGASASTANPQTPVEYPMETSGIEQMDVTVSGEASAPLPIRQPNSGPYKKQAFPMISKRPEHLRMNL
UniProt Q9WTL8: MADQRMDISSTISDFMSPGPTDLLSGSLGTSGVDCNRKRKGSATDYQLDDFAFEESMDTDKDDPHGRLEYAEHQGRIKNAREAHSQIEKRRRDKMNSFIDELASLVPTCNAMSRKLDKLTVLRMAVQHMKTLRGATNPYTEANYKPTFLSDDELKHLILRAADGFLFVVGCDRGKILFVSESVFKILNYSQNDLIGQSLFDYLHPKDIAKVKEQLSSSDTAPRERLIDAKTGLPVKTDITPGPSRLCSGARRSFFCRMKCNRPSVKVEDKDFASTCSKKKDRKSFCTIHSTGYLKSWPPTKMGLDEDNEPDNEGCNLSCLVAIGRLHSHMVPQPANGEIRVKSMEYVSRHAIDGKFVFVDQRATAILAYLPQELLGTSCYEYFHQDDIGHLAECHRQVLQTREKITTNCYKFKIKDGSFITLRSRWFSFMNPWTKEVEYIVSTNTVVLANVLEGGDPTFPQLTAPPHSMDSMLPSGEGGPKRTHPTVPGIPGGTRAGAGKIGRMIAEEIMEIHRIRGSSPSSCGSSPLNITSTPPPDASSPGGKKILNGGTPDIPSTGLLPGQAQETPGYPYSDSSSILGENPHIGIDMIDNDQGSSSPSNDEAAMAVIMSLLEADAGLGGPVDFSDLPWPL

Biological target: ribosomal protein S6 kinase 1 (S6K1) (mouse (endogenous in 3T3-L1)) (UniProt Q8BSK8)
Assay: co-IP; immunoprecipitation with S6K1 or IgG antibody from separated cytosolic and nuclear extracts of 3T3-L1 adipocytes; antibody 16 h at 4 °C, Protein A magnetic beads; IP lysis buffer 40 mM HEPES pH 7.4, 120 mM NaCl, 1 mM EDTA, 0.3% CHAPSO; immunoblot

Substance: BMAL1 (Brain and Muscle ARNT-Like 1) (from UniProt Q9WTL8 1-632)
- binding: binds
